According to the supplement of paper PMC8728848:
The list shows a part of the results.

How the values were obtained:
Test in all cases: glycan array binding signal (z-score within array); higher = stronger binding
Details in all cases: glycan notation: IUPAC condensed, linker removed
[1] = target: Neu5Ac(a2-3)Gal(b1-4)[Fuc(a1-3)]GlcNAc(b1-3)Gal(b1-4)[Fuc(a1-3)]GlcNAc(b1-3)Gal(b1-4)[Fuc(a1-3)]GlcNAc
Outline: (§1)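 The binding signal is a Z-score computed within each array and averaged over linkers. Arrays of the same protein sequence at different concentrations or buffers were also averaged together. Data originate from 3228 arrays in the Consortium for Functional Glycomics database, kept only where the protein sequence was available.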

[2] = target: Neu5Ac(a2-3)Gal(b1-4)[Fuc(a1-3)]GlcNAc(b1-3)GalNAc
Outline: as §1

[3] = target: Neu5Ac(a2-3)Gal(b1-4)[Fuc(a1-3)]GlcNAc(b1-6)[Gal(b1-3)]GalNAc
Outline: as §1

[4] = target: Neu5Ac(a2-3)Gal(b1-4)[Fuc(a1-3)]GlcNAc6S
Outline: as §1

[5] = target: Neu5Ac(a2-3)Gal6S(b1-4)GlcNAc
Outline: as §1

[6] = target: Neu5Ac(a2-3)Gal6S(b1-4)[Fuc(a1-3)]GlcNAc
Outline: as §1

Neu5Ac(a2-3)GalNAc = target: Neu5Ac(a2-3)GalNAc
Outline: as §1

[7] = target: Neu5Ac(a2-3)GalNAc(b1-4)GlcNAc
Outline: as §1

[8] = target: Neu5Ac(a2-3)[GalNAc(b1-4)]Gal(b1-4)Glc
Outline: as §1

[9] = target: Neu5Ac(a2-3)[GalNAc(b1-4)]Gal(b1-4)GlcNAc
Outline: as §1

[10] = target: Neu5Ac(a2-3)[GalNAc(b1-4)]Gal(b1-4)GlcNAc(b1-3)GalNAc
Outline: as §1

[11] = target: Neu5Ac(a2-3)[Neu5Ac(a2-6)]GalNAc
Outline: as §1

Neu5Ac(a2-6)Gal = target: Neu5Ac(a2-6)Gal
Outline: as §1

[12] = target: Neu5Ac(a2-6)Gal(b1-3)GlcNAc(b1-3)[Gal(b1-4)GlcNAc(b1-6)]Gal(b1-4)Glc
Outline: as §1

Neu5Ac(a2-6)Gal(b1-4)Glc = target: Neu5Ac(a2-6)Gal(b1-4)Glc
Outline: as §1

[13] = target: Neu5Ac(a2-6)Gal(b1-4)GlcNAc
Outline: as §1

[14] = target: Neu5Ac(a2-6)Gal(b1-4)GlcNAc(b1-2)Man(a1-3)Man(b1-4)GlcNAc(b1-4)GlcNAc
Outline: as §1

[15] = target: Neu5Ac(a2-6)Gal(b1-4)GlcNAc(b1-2)Man(a1-3)[Gal(b1-4)GlcNAc(b1-2)Man(a1-6)]Man(b1-4)GlcNAc(b1-4)GlcNAc
Outline: as §1

[16] = target: Neu5Ac(a2-6)Gal(b1-4)GlcNAc(b1-2)Man(a1-3)[GlcNAc(b1-2)Man(a1-6)]Man(b1-4)GlcNAc(b1-4)GlcNAc
Outline: as §1

[17] = target: Neu5Ac(a2-6)Gal(b1-4)GlcNAc(b1-2)Man(a1-3)[GlcNAc(b1-2)Man(b1-4)GlcNAc(b1-2)Man(a1-6)]Man(b1-4)GlcNAc(b1-4)GlcNAc
Outline: as §1

[18] = target: Neu5Ac(a2-6)Gal(b1-4)GlcNAc(b1-2)Man(a1-3)[Man(a1-6)]Man(b1-4)GlcNAc(b1-4)GlcNAc
Outline: as §1

[19] = target: Neu5Ac(a2-6)Gal(b1-4)GlcNAc(b1-2)Man(a1-3)[Neu5Ac(a2-6)Gal(b1-4)GlcNAc(b1-2)Man(a1-6)]Man(b1-4)GlcNAc(b1-4)GlcNAc
Outline: as §1

[20] = target: Neu5Ac(a2-6)Gal(b1-4)GlcNAc(b1-2)Man(a1-3)[Neu5Ac(a2-6)Gal(b1-4)GlcNAc(b1-2)Man(a1-6)]Man(b1-4)GlcNAc(b1-4)[Fuc(a1-6)]GlcNAc
Outline: as §1

[21] = target: Neu5Ac(a2-6)Gal(b1-4)GlcNAc(b1-2)Man(a1-6)Man(b1-4)GlcNAc(b1-4)GlcNAc
Outline: as §1

[22] = target: Neu5Ac(a2-6)Gal(b1-4)GlcNAc(b1-2)Man(a1-6)[Gal(b1-4)GlcNAc(b1-2)Man(a1-3)]Man(b1-4)GlcNAc(b1-4)GlcNAc
Outline: as §1

[23] = target: Neu5Ac(a2-6)Gal(b1-4)GlcNAc(b1-2)Man(a1-6)[GlcNAc(b1-2)Man(a1-3)]Man(b1-4)GlcNAc(b1-4)GlcNAc
Outline: as §1

[24] = target: Neu5Ac(a2-6)Gal(b1-4)GlcNAc(b1-2)Man(a1-6)[Man(a1-3)]Man(b1-4)GlcNAc(b1-4)GlcNAc
Outline: as §1

[25] = target: Neu5Ac(a2-6)Gal(b1-4)GlcNAc(b1-3)Gal(b1-3)GlcNAc
Outline: as §1

[26] = target: Neu5Ac(a2-6)Gal(b1-4)GlcNAc(b1-3)Gal(b1-4)GlcNAc
Outline: as §1

[27] = target: Neu5Ac(a2-6)Gal(b1-4)GlcNAc(b1-3)Gal(b1-4)GlcNAc(b1-3)Gal(b1-4)GlcNAc
Outline: as §1

[28] = target: Neu5Ac(a2-6)Gal(b1-4)GlcNAc(b1-3)Gal(b1-4)[Fuc(a1-3)]GlcNAc(b1-3)Gal(b1-4)[Fuc(a1-3)]GlcNAc
Outline: as §1

[29] = target: Neu5Ac(a2-6)Gal(b1-4)GlcNAc(b1-3)GalNAc
Outline: as §1

[30] = target: Neu5Ac(a2-6)Gal(b1-4)GlcNAc(b1-3)[Neu5Ac(a2-6)Gal(b1-4)GlcNAc(b1-6)]GalNAc
Outline: as §1

[31] = target: Neu5Ac(a2-6)Gal(b1-4)GlcNAc(b1-6)GalNAc
Outline: as §1

[32] = target: Neu5Ac(a2-6)Gal(b1-4)GlcNAc(b1-6)[Gal(b1-3)GlcNAc(b1-3)]Gal(b1-4)Glc
Outline: as §1

[33] = target: Neu5Ac(a2-6)Gal(b1-4)GlcNAc6S
Outline: as §1

Neu5Ac(a2-6)GalNAc = target: Neu5Ac(a2-6)GalNAc
Outline: as §1

[34] = target: Neu5Ac(a2-6)GalNAc(b1-4)GlcNAc
Outline: as §1

B1: CALR truncated at D342 (Homo sapiens) (protein)
chain: EPAVYFKEQFLDGDGWTSRWIESKHKSDFGKFVLSSGKFYGDEEKDKGLQTSQDARFYALSASFEPFSNKGQTLVVQFTVKHEQNIDCGGGYVKLFPNSLDQTDMHGDSEYNIMFGPDICGPGTKKVHVIFNYKGKNVLINKDIRCKDDEFTHLYTLIVRPDNTYEVKIDNSQVESGSLEDDWDFLPPKKIKDPDASKPEDWDERAKIDDPTDSKPEDWDKPEHIPDPDAKKPEDWDEEMDGEWEPPVIQNPEYKGEWKPRQIDNPDYKGTWIHPEIDNPEYSPDPSIYAYDNFGVLGLDLWQVKSGTIFDNFLITNDEAYAEEFGNETWGVTKAAEKQMKD
glycan array binding signal (z-score) [1]: 0.606 | glycan array binding signal (z-score) [2]: 1.5 | glycan array binding signal (z-score) [3]: -0.059 | glycan array binding signal (z-score) [4]: 1.77 | glycan array binding signal (z-score) [5]: -0.435 | glycan array binding signal (z-score) [6]: 0.177 | glycan array binding signal (z-score) (Neu5Ac(a2-3)GalNAc): -0.187 | glycan array binding signal (z-score) [7]: -0.937 | glycan array binding signal (z-score) [8]: -0.243 | glycan array binding signal (z-score) [9]: 0.289 | glycan array binding signal (z-score) [10]: 0.131 | glycan array binding signal (z-score) [11]: -0.012 | glycan array binding signal (z-score) (Neu5Ac(a2-6)Gal): -0.349 | glycan array binding signal (z-score) [12]: -0.428 | glycan array binding signal (z-score) (Neu5Ac(a2-6)Gal(b1-4)Glc): -0.461 | glycan array binding signal (z-score) [13]: 0.272 | glycan array binding signal (z-score) [14]: -1.97 | glycan array binding signal (z-score) [15]: 0.794 | glycan array binding signal (z-score) [16]: -0.321 | glycan array binding signal (z-score) [17]: 0.761 | glycan array binding signal (z-score) [18]: -1.83 | glycan array binding signal (z-score) [19]: 0.126 | glycan array binding signal (z-score) [20]: 0.642 | glycan array binding signal (z-score) [21]: -1.06 | glycan array binding signal (z-score) [22]: 3.22 | glycan array binding signal (z-score) [23]: -1.48 | glycan array binding signal (z-score) [24]: -0.245 | glycan array binding signal (z-score) [25]: 1.64 | glycan array binding signal (z-score) [26]: 1.39 | glycan array binding signal (z-score) [27]: -0.623 | glycan array binding signal (z-score) [28]: 0.139 | glycan array binding signal (z-score) [29]: -1.36 | glycan array binding signal (z-score) [30]: 0.163 | glycan array binding signal (z-score) [31]: 2.17 | glycan array binding signal (z-score) [32]: -0.457 | glycan array binding signal (z-score) [33]: 0.119 | glycan array binding signal (z-score) (Neu5Ac(a2-6)GalNAc): -0.893 | glycan array binding signal (z-score) [34]: 0.431
